Laboratory results taken from the supplement of paper PMC12578635.
± gives the standard deviation of the averaged measurements. The list shows a part of the results. Many values rest on one well or one pass, so single values are uncertain.

system: RAW 264.7 macrophages infected with S. aureus JE2-lux; assay: host macrophage viability (CellTiter-Fluor) relative to DMSO vehicle; higher = more viable host cells; conditions: 10 µM; treatment time 4 h; gentamicin 50 µg/ml

SMILES | host macrophage viability
O=C(COc1ccccc1)Nc1nc2c(cc3c4c(cccc42)CC3)s1 | 119 ± 16%
O=C(O)CCCN1C(=O)c2cccc([N+](=O)[O-])c2C1=O | 114 ± 1.7%
COc1ccccc1NS(=O)(=O)c1cc(C)c2[nH]c(=O)cc(C)c2c1 | 119%
NC(=O)C1(N2CCCCC2)CCN(c2ccc(NS(=O)(=O)c3ccccc3)c(C(=O)O)c2)CC1 | 139%
COc1cccc2cc(C(=O)Nc3ccc(F)cc3)/c(=N/NS(=O)(=O)c3ccccc3)oc12 | 109%
O=C1CCCN2N=C(SCC(=O)NCc3ccco3)SC2=N1 | 121%
O=C(CCn1nnc2ccccc21)N/N=C/c1cccc(O)c1 | 126%
O=C(Cn1cnc2c(cnn2-c2ccc(Cl)cc2)c1=O)N1CCc2ccccc21 | 116 ± 19%
CCCc1ccc(C(=O)CC2(O)C(=O)Nc3ccc(C)cc32)cc1 (centres undefined) | 146%
CCCCc1ccc(NC(=O)CSc2nc(=O)n3ccccc3n2)cc1 | 118%
CCOc1ccccc1NC(=O)c1c[nH]c(=O)n(-c2ccc(F)cc2)c1=O | 106 ± 6.4%
O=C(Nc1ncc(Cc2ccc(F)cc2)s1)c1ccc2nccnc2c1 | 127%
O=C(Nc1ccccc1Cl)c1cccnc1-c1ccsc1 | 110%
CCOc1ccc(-c2csc(/C(C#N)=C\c3ccc(O)c(OCC)c3)n2)cc1 | 149 ± 6.7%
CC(C(=O)Nc1ncc([N+](=O)[O-])s1)N1C(=O)c2ccccc2S1(=O)=O (centres undefined) | 104%
CC(C)c1ccc(/C=C(\C#N)C(=O)Nc2cccc(Br)c2)cc1 | 113%
CSc1nc2cc(NC(=S)NC(=O)c3ccccc3)ccc2s1 | 118%
Cn1c2ccccc2n2c(=O)n(CC(=O)N3CCOCC3)nc12 | 120%
O=C(CS(=O)(=O)Cc1ccccc1)Nc1nc2ccc(Br)cc2s1 | 102%
Cc1nn2c(NCc3ccccn3)cc(C(C)(C)C)nc2c1-c1ccc(F)cc1 | 102%
COc1ccccc1NC(=O)CSc1nnc2sc3ccccc3n12 | 115%
COC(=O)c1ccccc1NC(=O)c1cc2cccnc2n(C)c1=O | 112%
CCOc1ccc(CCNc2nccn(-c3ccc4c(c3)OCO4)c2=O)cc1OCC | 114%
COc1ccc(OC)c(NC(=O)C(=O)NCc2cccs2)c1 | 98.2%
CC(C)(C)c1ccc(-c2cc(=O)c3cc(NC(=O)c4cccnc4)ccc3o2)cc1 | 102%
Cc1ccc(-n2c(N)cc(=O)nc2SCC(=O)Nc2nccs2)cc1 | 107%
Cc1cc(C)nc(SCc2cc(=O)c(OC(=O)c3cc(Cl)ccc3Cl)co2)n1 | 121%
O=C(O)CCCN1C(=O)C2C3CC(C2C1=O)C1C(c2cccnc2)c2sc(=O)[nH]c2SC31 (centres undefined) | 116%
Cc1ccc(Nc2nc(C(=O)NCc3ccco3)cc3occc23)cc1 | 87%

An excerpt from above in order of count of non-hydrogen atoms, low to high:
SMILES | host macrophage viability
O=C(Nc1ccccc1Cl)c1cccnc1-c1ccsc1 | 110%
O=C(CCn1nnc2ccccc21)N/N=C/c1cccc(O)c1 | 126%
CC(C(=O)Nc1ncc([N+](=O)[O-])s1)N1C(=O)c2ccccc2S1(=O)=O (centres undefined) | 104%
CCCCc1ccc(NC(=O)CSc2nc(=O)n3ccccc3n2)cc1 | 118%
CCOc1ccccc1NC(=O)c1c[nH]c(=O)n(-c2ccc(F)cc2)c1=O | 106 ± 6.4%
CCOc1ccc(-c2csc(/C(C#N)=C\c3ccc(O)c(OCC)c3)n2)cc1 | 149 ± 6.7%
O=C(Cn1cnc2c(cnn2-c2ccc(Cl)cc2)c1=O)N1CCc2ccccc21 | 116 ± 19%
COc1cccc2cc(C(=O)Nc3ccc(F)cc3)/c(=N/NS(=O)(=O)c3ccccc3)oc12 | 109%
